From patent US20240201191A1, “CITRULLINATED PROTEINS AS BIOMARKERS AND THERAPY TARGETS FOR CANCER” (BOARD OF REGENTS, THE UNIVERSITY OF TEXAS SYSTEM, priority 2022, published 2024)

System: MDA-MB-468 (TNBC) cells
Assay: Cell surface HLA-bound peptidyl-citrullinome by mass spectrometry, MDA-MB-468
Format: cell-based, human
Conditions: mild acid elution, LC-MS/MS, FDR=0.01; class by peptide length

Substance: SLTGLLLLQAVSWASGAR*P (SLTGLLLLQAVSWASGARP; citrulline at R18; MOD_RES (18)..(18) Citrullinated Arginine) [SEQ ID NO: 52, GBA peptide, R18(Cit.)]
- Cell surface MHC binding citrullinated peptide identified in MDA-MB-468 (TNBC): MHC-II (from 12 to 34 as MHC-IU binding peptides)

Some ranges recur; such a range may be that of the whole group of compounds.
